# Measurements published in the supplement of paper PMC8728848.
# The other results are listed elsewhere or left out.
# B1: Epa20 (Candida glabrata) (protein)
# chain: MGSSHHHHHHSSGLVPRGSHMASSNIPNNYPLGCSNKYSGHLPGLKMELYSYNYVNPRHPDPQNPGKLDQLYDPNLLGTYECFDSSYKDINYPRVGYKSKTLIGRSDGVSGILNFNFVPPWGCMPQKGQLPPAYNFKSNITLSNFTMILFGYFKPKISGNHIFSLHGDDLIYLNFGAGNAFDCCRQESSADNFGNYQAFSLWGINWEKKTLTVYLDMNTYYPIRIFYNNRDYQAIFNFSFKTEFDSSPVIDFQDYFFFLRDIDGGCPGEV
# Legend:
# Assay in all cases: glycan array binding signal (z-score within array); higher = stronger binding
# Conditions in all cases: glycan notation: IUPAC condensed, linker removed
# Fuc(a1-2)Gal = molecular target: Fuc(a1-2)Gal
# Summary of the method: (§1)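 The binding signal is a Z-score computed within each array and averaged over linkers. Arrays of the same protein sequence at different concentrations or buffers were also averaged together. Data originate from 3228 arrays in the Consortium for Functional Glycomics database, kept only where the protein sequence was available.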
# Fuc(a1-2)Gal(b1-3)GalNAc = molecular target: Fuc(a1-2)Gal(b1-3)GalNAc
# Summary of the method: as §1
# [1] = molecular target: Fuc(a1-2)Gal(b1-3)GalNAc(a1-3)[Fuc(a1-2)]Gal(b1-4)Glc
# Summary of the method: as §1
# [2] = molecular target: Fuc(a1-2)Gal(b1-3)GalNAc(a1-3)[Fuc(a1-2)]Gal(b1-4)GlcNAc
# Summary of the method: as §1
# [3] = molecular target: Fuc(a1-2)Gal(b1-3)GalNAc(b1-3)Gal
# Summary of the method: as §1
# [4] = molecular target: Fuc(a1-2)Gal(b1-3)GalNAc(b1-3)Gal(a1-4)Gal(b1-4)Glc
# Summary of the method: as §1
# [5] = molecular target: Fuc(a1-2)Gal(b1-3)GalNAc(b1-4)[Neu5Ac(a2-3)]Gal(b1-4)Glc
# Summary of the method: as §1
# Fuc(a1-2)Gal(b1-3)GlcNAc = molecular target: Fuc(a1-2)Gal(b1-3)GlcNAc
# Summary of the method: as §1
# [6] = molecular target: Fuc(a1-2)Gal(b1-3)GlcNAc(b1-2)Man(a1-3)[Fuc(a1-2)Gal(b1-3)GlcNAc(b1-2)Man(a1-6)]Man(b1-4)GlcNAc(b1-4)GlcNAc
# Summary of the method: as §1
# [7] = molecular target: Fuc(a1-2)Gal(b1-3)GlcNAc(b1-2)Man(a1-3)[Fuc(a1-2)Gal(b1-3)GlcNAc(b1-2)Man(a1-6)]Man(b1-4)GlcNAc(b1-4)[Fuc(a1-6)]GlcNAc
# Summary of the method: as §1
# [8] = molecular target: Fuc(a1-2)Gal(b1-3)GlcNAc(b1-3)Gal(b1-4)Glc
# Summary of the method: as §1
# [9] = molecular target: Fuc(a1-2)Gal(b1-3)GlcNAc(b1-3)GalNAc
# Summary of the method: as §1
# [10] = molecular target: Fuc(a1-2)Gal(b1-3)GlcNAc(b1-3)[Fuc(a1-2)Gal(b1-3)GlcNAc(b1-6)]GalNAc
# Summary of the method: as §1
# [11] = molecular target: Fuc(a1-2)Gal(b1-3)GlcNAc(b1-3)[Gal(b1-4)GlcNAc(b1-6)]Gal(b1-4)Glc
# Summary of the method: as §1
# [12] = molecular target: Fuc(a1-2)Gal(b1-3)GlcNAc(b1-3)[Neu5Ac(a2-6)Gal(b1-4)GlcNAc(b1-6)]Gal(b1-4)Glc
# Summary of the method: as §1
# [13] = molecular target: Fuc(a1-2)Gal(b1-3)GlcNAc6S
# Summary of the method: as §1
# [14] = molecular target: Fuc(a1-2)Gal(b1-3)[Fuc(a1-4)]GlcNAc
# Summary of the method: as §1
# [15] = molecular target: Fuc(a1-2)Gal(b1-3)[Fuc(a1-4)]GlcNAc(b1-2)Man(a1-3)[Fuc(a1-2)Gal(b1-3)[Fuc(a1-4)]GlcNAc(b1-2)Man(a1-3)]Man(b1-4)GlcNAc(b1-4)GlcNAc
# Summary of the method: as §1
# [16] = molecular target: Fuc(a1-2)Gal(b1-3)[Fuc(a1-4)]GlcNAc(b1-2)Man(a1-3)[Fuc(a1-2)Gal(b1-3)[Fuc(a1-4)]GlcNAc(b1-2)Man(a1-6)]Man(b1-4)GlcNAc(b1-4)[Fuc(a1-6)]GlcNAc(b1-4)[Fuc(a1-6)]GlcNAc
# Summary of the method: as §1
# [17] = molecular target: Fuc(a1-2)Gal(b1-3)[Fuc(a1-4)]GlcNAc(b1-3)[Fuc(a1-3)[Gal(b1-4)]GlcNAc(b1-6)]Gal(b1-4)Glc
# Summary of the method: as §1
# [18] = molecular target: Fuc(a1-2)Gal(b1-3)[Fuc(a1-4)]GlcNAc(b1-3)[Gal(b1-4)GlcNAc(b1-6)]Gal(b1-4)Glc
# Summary of the method: as §1
# [19] = molecular target: Fuc(a1-2)Gal(b1-4)Fuc(a1-3)]GlcNAc(b1-2)Man(a1-3)[Fuc(a1-2)Gal(b1-4)[Fuc(a1-3)]GlcNAc(b1-2)Man(a1-6)]Man(b1-4)GlcNAc(b1-4)GlcNAc
# Summary of the method: as §1
# Fuc(a1-2)Gal(b1-4)Glc = molecular target: Fuc(a1-2)Gal(b1-4)Glc
# Summary of the method: as §1
# Fuc(a1-2)Gal(b1-4)Glc6S = molecular target: Fuc(a1-2)Gal(b1-4)Glc6S
# Summary of the method: as §1
# Fuc(a1-2)Gal(b1-4)GlcNAc = molecular target: Fuc(a1-2)Gal(b1-4)GlcNAc
# Summary of the method: as §1
# [20] = molecular target: Fuc(a1-2)Gal(b1-4)GlcNAc(b1-2)Man
# Summary of the method: as §1
# [21] = molecular target: Fuc(a1-2)Gal(b1-4)GlcNAc(b1-2)Man(a1-3)[Fuc(a1-2)Gal(b1-4)GlcNAc(b1-2)Man(a1-6)]Man(b1-4)GlcNAc(b1-4)GlcNAc
# Summary of the method: as §1
# [22] = molecular target: Fuc(a1-2)Gal(b1-4)GlcNAc(b1-2)Man(a1-3)[Fuc(a1-2)Gal(b1-4)GlcNAc(b1-2)Man(a1-6)]Man(b1-4)GlcNAc(b1-4)[Fuc(a1-6)]GlcNAc
# Summary of the method: as §1
# [23] = molecular target: Fuc(a1-2)Gal(b1-4)GlcNAc(b1-2)[Fuc(a1-2)Gal(b1-4)GlcNAc(b1-4)]Man(a1-3)[Fuc(a1-2)Gal(b1-4)GlcNAc(b1-2)Man(a1-6)]Man(b1-4)GlcNAc(b1-4)GlcNAc
# Summary of the method: as §1
# [24] = molecular target: Fuc(a1-2)Gal(b1-4)GlcNAc(b1-3)Gal(b1-4)GlcNAc
# Summary of the method: as §1
# [25] = molecular target: Fuc(a1-2)Gal(b1-4)GlcNAc(b1-3)Gal(b1-4)GlcNAc(b1-2)Man(a1-3)[Fuc(a1-2)Gal(b1-4)GlcNAc(b1-3)Gal(b1-4)GlcNAc(b1-2)Man(a1-6)]Man(b1-4)GlcNAc(b1-4)GlcNAc
# Summary of the method: as §1
# [26] = molecular target: Fuc(a1-2)Gal(b1-4)GlcNAc(b1-3)Gal(b1-4)GlcNAc(b1-3)Gal(b1-4)GlcNAc
# Summary of the method: as §1
# [27] = molecular target: Fuc(a1-2)Gal(b1-4)GlcNAc(b1-3)GalNAc
# Summary of the method: as §1
# [28] = molecular target: Fuc(a1-2)Gal(b1-4)GlcNAc(b1-3)[Fuc(a1-2)Gal(b1-4)GlcNAc(b1-6)]GalNAc
# Summary of the method: as §1
# [29] = molecular target: Fuc(a1-2)Gal(b1-4)GlcNAc(b1-3)[Fuc(a1-3)[Gal(b1-4)]GlcNAc(b1-6)]Gal(b1-4)Glc
# Summary of the method: as §1
# [30] = molecular target: Fuc(a1-2)Gal(b1-4)GlcNAc(b1-6)GalNAc
# Summary of the method: as §1
# [31] = molecular target: Fuc(a1-2)Gal(b1-4)GlcNAc6S
# Summary of the method: as §1
# [32] = molecular target: Fuc(a1-2)Gal(b1-4)[Fuc(a1-3)]GlcNAc
# Summary of the method: as §1
# [33] = molecular target: Fuc(a1-2)Gal(b1-4)[Fuc(a1-3)]GlcNAc(b1-2)Man(a1-3)[Fuc(a1-2)Gal(b1-4)[Fuc(a1-3)]GlcNAc(b1-2)Man(a1-6)]Man(b1-4)GlcNAc(b1-4)[Fuc(a1-6)]GlcNAc
# Summary of the method: as §1
# [34] = molecular target: Fuc(a1-2)Gal(b1-4)[Fuc(a1-3)]GlcNAc(b1-2)[Fuc(a1-2)Gal(b1-4)[Fuc(a1-3)]GlcNAc(b1-4)]Man(a1-3)[Fuc(a1-2)Gal(b1-4)[Fuc(a1-3)]GlcNAc(b1-2)Man(a1-6)]Man(b1-4)GlcNAc(b1-4)GlcNAc
# Summary of the method: as §1
# [35] = molecular target: Fuc(a1-2)Gal(b1-4)[Fuc(a1-3)]GlcNAc(b1-3)Gal(b1-4)[Fuc(a1-3)]GlcNAc
# Summary of the method: as §1
# [36] = molecular target: Fuc(a1-2)Gal(b1-4)[Fuc(a1-3)]GlcNAc(b1-3)Gal(b1-4)[Fuc(a1-3)]GlcNAc(b1-3)Gal(b1-4)[Fuc(a1-3)]GlcNAc
# Summary of the method: as §1
# [37] = molecular target: Fuc(a1-2)Gal(b1-4)[Fuc(a1-3)]GlcNAc(b1-3)GalNAc
# Summary of the method: as §1
# [38] = molecular target: Fuc(a1-2)Gal(b1-4)[Fuc(a1-3)]GlcNAc(b1-3)[Neu5Ac(a2-6)Gal(b1-4)GlcNAc(b1-6)]Gal(b1-4)Glc
# Summary of the method: as §1
# [39] = molecular target: Fuc(a1-2)Gal3S(b1-4)GlcNAc
# Summary of the method: as §1
binder,measurement,setting,value
B1,glycan array binding signal (z-score),Fuc(a1-2)Gal,-0.362
same,glycan array binding signal (z-score),Fuc(a1-2)Gal(b1-3)GalNAc,-0.452
same,glycan array binding signal (z-score),[1],-0.469
same,glycan array binding signal (z-score),[2],-0.278
same,glycan array binding signal (z-score),[3],0.885
same,glycan array binding signal (z-score),[4],0.487
same,glycan array binding signal (z-score),[5],-0.415
same,glycan array binding signal (z-score),Fuc(a1-2)Gal(b1-3)GlcNAc,-0.518
same,glycan array binding signal (z-score),[6],0.572
same,glycan array binding signal (z-score),[7],-0.099
same,glycan array binding signal (z-score),[8],-0.454
same,glycan array binding signal (z-score),[9],-0.358
same,glycan array binding signal (z-score),[10],0.398
same,glycan array binding signal (z-score),[11],0.139
same,glycan array binding signal (z-score),[12],-0.719
same,glycan array binding signal (z-score),[13],-0.404
same,glycan array binding signal (z-score),[14],-0.382
same,glycan array binding signal (z-score),[15],0.295
same,glycan array binding signal (z-score),[16],-0.356
same,glycan array binding signal (z-score),[17],-0.793
same,glycan array binding signal (z-score),[18],-0.805
same,glycan array binding signal (z-score),[19],3.16
same,glycan array binding signal (z-score),Fuc(a1-2)Gal(b1-4)Glc,-0.513
same,glycan array binding signal (z-score),Fuc(a1-2)Gal(b1-4)Glc6S,0.294
same,glycan array binding signal (z-score),Fuc(a1-2)Gal(b1-4)GlcNAc,-0.626
same,glycan array binding signal (z-score),[20],-0.199
same,glycan array binding signal (z-score),[21],-0.453
same,glycan array binding signal (z-score),[22],-0.005
same,glycan array binding signal (z-score),[23],-0.337
same,glycan array binding signal (z-score),[24],-0.782
same,glycan array binding signal (z-score),[25],-0.254
same,glycan array binding signal (z-score),[26],-0.44
same,glycan array binding signal (z-score),[27],-0.072
same,glycan array binding signal (z-score),[28],0.324
same,glycan array binding signal (z-score),[29],-0.807
same,glycan array binding signal (z-score),[30],0.81
same,glycan array binding signal (z-score),[31],-0.623
same,glycan array binding signal (z-score),[32],-0.496
same,glycan array binding signal (z-score),[33],-0.521
same,glycan array binding signal (z-score),[34],0.267
same,glycan array binding signal (z-score),[35],-0.331
same,glycan array binding signal (z-score),[36],-0.389
same,glycan array binding signal (z-score),[37],4.96
same,glycan array binding signal (z-score),[38],-0.528
same,glycan array binding signal (z-score),[39],-0.566

# Quoted at random: 2 records from the list, in no set order.
binder,measurement,setting,value
B1,glycan array binding signal (z-score),Fuc(a1-2)Gal(b1-4)Glc6S,0.294
same,glycan array binding signal (z-score),[17],-0.793
